{"source": "patent US5760188A", "about": "“Marker for neurotensin receptor” (Martin R&F Inc., priority 1996, dated 1998)", "key": {"neurotensin receptor": {"biological_target": "neurotensin receptor", "assay": "Competitive binding assay, displacement of monoiodo 125I-Tyr3-neurotensin on purified brain membranes", "parameters": "species or system mice"}, "Stability / shelf life": {"assay": "Stability / shelf life", "type": "physicochemical"}, "[1]": {"tested_on": "SN6 cholinergic hybrid cells", "assay": "Flow cytometric analysis of fluoro-neurotensin binding to cholinergic hybrid cells", "type": "cell-based, murine"}, "[2]": {"tested_on": "SN6 cholinergic hybrid cells", "assay": "Confocal microscopic visualization of neurotensin binding sites on cholinergic hybrid cells", "type": "cell-based, murine"}, "neurotensin receptors": {"tested_on": "neurotensin receptors", "assay": "In vitro labeling of neurotensin receptors on rat brain tissue sections", "type": "binding", "conditions": "rat substantia nigra / ventral tegmental sections, 4° C., 60 minutes"}}, "note": "Not every detail of the peptide structures is certain; ends, links or a residue may be inferred.", "data": [{"smiles": "CC[C@H](C)[C@H](NC(=O)[C@H](Cc1ccc(O)cc1)NC(=O)[C@@H]1CCCN1C(=O)[C@H](CCCNC(=N)N)NC(=O)[C@H](CCCNC(=N)N)NC(=O)[C@@H]1CCCN1C(=O)[C@H](CCCCN)NC(=O)[C@H](CC(N)=O)NC(=O)[C@H](CCC(=O)O)NC(=O)[C@H](Cc1ccc(O)cc1)NC(=O)[C@H](CC(C)C)NC(=O)[C@H](CCC(=O)O)NC(=S)Nc1ccc2c(c1)C(=O)OC21c2ccc(O)cc2Oc2cc(O)ccc21)C(=O)N[C@@H](CC(C)C)C(=O)O", "note": "[N-FTC-[Glu^1]NT, N-fluoresceyl thiocarbamyl-[Glu^1] neurotensin]", "values": [{"measurement": "IC50", "setting": "neurotensin receptor; 0.1 nM 125I-Tyr3-neurotensin, mouse brain membranes, 20 minutes at 22° C.", "value": 0.55, "unit": "nM"}, {"measurement": "displacement of specific 125I-Tyr3-neurotensin binding", "setting": "neurotensin receptor; dose dependent, FIG. 4", "value": "completely displaces"}, {"measurement": "pseudo-Hill coefficient", "setting": "neurotensin receptor; mouse brain membranes", "value": "approximately 1"}, {"measurement": "shelf life", "setting": "Stability / shelf life", "value": "at least one"}, {"measurement": "Maximal binding densities", "setting": "[1]; 4° C. vs 20° C.", "value": "higher at 4 °C than at 20 °C"}, {"measurement": "cells displaying specific fluoro-neurotensin binding", "setting": "[1]; at both 4° C. and 20° C., 1 hour", "value": 97.4, "unit": "%"}, {"measurement": "distribution of bound fluorescence", "setting": "[2]; SN6 cells incubated at 4° C.", "value": "prominent staining of the cell borders"}, {"measurement": "distribution of bound fluorescence after warming", "setting": "[2]; SN6 cells, 37° C. for 10 minutes", "value": "surface fluorescence intensity diminished and multiple small, bright fluorescent particles appeared in the cytoplasm"}, {"measurement": "fluorescent labeling in presence of excess unlabeled neurotensin", "setting": "neurotensin receptors", "value": "no longer apparent"}]}]}
